# Data: PMC4881025
# Amino acid sequences for entries named in this document (tags omitted).
# UniProt P61202: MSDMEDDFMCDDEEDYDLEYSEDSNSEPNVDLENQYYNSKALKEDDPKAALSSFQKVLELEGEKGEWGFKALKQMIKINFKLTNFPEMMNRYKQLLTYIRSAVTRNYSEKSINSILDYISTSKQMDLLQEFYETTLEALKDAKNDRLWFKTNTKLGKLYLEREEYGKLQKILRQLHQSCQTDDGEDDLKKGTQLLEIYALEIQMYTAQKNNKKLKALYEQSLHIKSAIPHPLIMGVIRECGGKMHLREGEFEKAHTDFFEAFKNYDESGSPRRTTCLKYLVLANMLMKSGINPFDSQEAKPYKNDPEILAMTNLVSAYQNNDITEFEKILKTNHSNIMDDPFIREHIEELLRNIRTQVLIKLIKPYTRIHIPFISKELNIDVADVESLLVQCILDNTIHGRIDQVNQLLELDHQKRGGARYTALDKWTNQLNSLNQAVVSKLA
# UniProt O09106: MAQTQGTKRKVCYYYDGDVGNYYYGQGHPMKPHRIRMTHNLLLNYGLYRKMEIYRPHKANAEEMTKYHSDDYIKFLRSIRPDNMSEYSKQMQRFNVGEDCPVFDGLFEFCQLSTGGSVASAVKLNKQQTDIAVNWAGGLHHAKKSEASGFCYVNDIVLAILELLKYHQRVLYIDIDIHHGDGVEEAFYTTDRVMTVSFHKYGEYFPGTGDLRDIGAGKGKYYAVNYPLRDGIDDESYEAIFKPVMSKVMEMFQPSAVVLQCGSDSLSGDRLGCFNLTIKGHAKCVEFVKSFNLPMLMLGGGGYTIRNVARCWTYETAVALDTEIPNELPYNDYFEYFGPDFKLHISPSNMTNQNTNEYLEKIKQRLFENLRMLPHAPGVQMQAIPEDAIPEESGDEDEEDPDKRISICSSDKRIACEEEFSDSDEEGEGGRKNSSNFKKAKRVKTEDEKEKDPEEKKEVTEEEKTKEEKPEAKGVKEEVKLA
# UniProt P70288: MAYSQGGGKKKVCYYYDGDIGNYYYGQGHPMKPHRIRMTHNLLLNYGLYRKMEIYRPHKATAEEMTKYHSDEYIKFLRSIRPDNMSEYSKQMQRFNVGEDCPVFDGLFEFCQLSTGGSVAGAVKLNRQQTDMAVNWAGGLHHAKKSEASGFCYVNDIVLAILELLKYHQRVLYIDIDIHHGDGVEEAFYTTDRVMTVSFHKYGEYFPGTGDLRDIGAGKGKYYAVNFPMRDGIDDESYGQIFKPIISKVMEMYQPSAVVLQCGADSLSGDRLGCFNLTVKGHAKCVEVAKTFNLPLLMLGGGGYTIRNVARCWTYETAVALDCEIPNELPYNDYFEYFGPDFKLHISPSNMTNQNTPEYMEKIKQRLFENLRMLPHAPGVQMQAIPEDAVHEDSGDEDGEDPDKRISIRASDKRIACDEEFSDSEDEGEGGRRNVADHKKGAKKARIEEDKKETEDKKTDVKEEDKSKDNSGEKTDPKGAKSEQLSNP
# UniProt P17918: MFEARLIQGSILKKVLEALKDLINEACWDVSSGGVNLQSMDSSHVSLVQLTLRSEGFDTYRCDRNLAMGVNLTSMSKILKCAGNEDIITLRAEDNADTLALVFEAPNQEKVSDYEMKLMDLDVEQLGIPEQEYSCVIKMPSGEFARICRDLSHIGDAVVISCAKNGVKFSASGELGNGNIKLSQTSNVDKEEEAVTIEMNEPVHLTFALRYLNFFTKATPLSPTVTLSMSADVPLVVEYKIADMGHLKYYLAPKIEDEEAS
# UniProt Q6PR54: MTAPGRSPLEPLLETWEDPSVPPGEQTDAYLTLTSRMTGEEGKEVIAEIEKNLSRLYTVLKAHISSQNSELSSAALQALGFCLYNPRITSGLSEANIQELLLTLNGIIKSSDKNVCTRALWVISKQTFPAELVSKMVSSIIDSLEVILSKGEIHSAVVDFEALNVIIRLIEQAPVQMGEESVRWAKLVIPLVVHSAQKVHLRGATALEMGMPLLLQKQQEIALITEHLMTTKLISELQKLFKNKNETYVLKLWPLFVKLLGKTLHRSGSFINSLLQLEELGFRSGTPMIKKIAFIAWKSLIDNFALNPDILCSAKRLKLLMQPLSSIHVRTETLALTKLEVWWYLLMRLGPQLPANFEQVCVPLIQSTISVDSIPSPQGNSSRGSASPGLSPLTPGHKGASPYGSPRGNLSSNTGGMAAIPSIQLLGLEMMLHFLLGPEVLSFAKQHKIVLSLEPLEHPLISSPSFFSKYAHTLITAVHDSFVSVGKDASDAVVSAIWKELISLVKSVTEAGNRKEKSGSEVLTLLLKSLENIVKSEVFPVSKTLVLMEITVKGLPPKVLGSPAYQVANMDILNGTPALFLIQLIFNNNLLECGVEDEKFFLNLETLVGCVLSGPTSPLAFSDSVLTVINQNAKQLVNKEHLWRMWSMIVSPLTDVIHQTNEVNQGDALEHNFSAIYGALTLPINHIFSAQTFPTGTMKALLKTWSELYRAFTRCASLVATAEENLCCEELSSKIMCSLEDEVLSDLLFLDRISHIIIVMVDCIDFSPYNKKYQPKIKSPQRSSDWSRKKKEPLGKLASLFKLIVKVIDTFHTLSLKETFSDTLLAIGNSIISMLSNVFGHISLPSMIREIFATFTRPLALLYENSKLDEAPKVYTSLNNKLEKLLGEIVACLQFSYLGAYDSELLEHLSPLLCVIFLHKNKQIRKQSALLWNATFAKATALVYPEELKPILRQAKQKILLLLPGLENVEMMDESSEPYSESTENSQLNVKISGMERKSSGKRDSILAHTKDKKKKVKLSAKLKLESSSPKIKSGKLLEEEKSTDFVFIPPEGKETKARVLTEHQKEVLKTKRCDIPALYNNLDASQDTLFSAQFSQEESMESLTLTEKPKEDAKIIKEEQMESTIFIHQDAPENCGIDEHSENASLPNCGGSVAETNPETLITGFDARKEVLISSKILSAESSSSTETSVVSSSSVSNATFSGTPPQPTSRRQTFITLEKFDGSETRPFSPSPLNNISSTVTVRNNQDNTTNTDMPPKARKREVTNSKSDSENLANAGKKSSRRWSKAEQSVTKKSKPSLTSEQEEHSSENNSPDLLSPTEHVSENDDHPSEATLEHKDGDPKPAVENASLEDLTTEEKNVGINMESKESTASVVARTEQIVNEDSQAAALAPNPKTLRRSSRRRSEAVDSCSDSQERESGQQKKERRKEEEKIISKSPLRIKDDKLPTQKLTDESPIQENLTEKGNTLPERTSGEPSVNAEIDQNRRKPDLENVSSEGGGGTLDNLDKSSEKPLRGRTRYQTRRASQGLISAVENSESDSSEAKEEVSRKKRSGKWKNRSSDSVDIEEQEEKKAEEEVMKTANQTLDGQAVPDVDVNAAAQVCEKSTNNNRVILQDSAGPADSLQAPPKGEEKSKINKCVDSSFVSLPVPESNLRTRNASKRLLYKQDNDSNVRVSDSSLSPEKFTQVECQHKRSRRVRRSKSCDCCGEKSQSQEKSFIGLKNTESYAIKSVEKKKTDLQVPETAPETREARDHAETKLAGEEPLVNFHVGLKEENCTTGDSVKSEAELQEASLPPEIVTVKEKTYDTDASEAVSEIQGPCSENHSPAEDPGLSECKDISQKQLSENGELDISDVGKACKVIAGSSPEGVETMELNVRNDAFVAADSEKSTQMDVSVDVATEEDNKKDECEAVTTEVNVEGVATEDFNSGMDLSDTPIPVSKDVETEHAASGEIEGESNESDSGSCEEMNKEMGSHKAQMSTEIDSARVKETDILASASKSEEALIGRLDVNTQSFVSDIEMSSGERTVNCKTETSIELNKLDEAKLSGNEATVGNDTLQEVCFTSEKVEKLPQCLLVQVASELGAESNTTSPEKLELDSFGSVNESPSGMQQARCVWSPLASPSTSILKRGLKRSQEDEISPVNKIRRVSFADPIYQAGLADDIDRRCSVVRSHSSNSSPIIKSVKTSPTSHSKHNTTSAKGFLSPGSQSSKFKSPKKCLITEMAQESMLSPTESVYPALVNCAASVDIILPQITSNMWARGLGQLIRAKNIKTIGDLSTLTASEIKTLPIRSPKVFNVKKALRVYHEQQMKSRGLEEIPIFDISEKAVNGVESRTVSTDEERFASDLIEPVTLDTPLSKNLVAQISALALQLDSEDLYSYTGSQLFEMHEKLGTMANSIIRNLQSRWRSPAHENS
# These are yes or no findings as the source states them, for the method shown. Binding seen in cells or lysates may run through a third protein. Some binding calls cover weakened binding; strength is not graded here. For some assays here: Where a sequence is shown, tags or fusion partners need not be part of it.
# T1: Flag-tagged WT Nanog (mouse) (UniProt Q80Z64)
# T1 sequence: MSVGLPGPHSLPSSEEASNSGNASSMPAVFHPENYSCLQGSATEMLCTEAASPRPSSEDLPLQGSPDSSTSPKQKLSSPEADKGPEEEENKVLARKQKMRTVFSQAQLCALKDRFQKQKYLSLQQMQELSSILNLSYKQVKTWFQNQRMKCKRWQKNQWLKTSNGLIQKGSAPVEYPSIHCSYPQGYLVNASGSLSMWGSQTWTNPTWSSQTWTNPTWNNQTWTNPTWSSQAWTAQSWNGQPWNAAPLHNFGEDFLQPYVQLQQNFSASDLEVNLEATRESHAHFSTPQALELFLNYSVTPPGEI
# T2: Nanog (mouse) (UniProt Q80Z64)
# T2 sequence: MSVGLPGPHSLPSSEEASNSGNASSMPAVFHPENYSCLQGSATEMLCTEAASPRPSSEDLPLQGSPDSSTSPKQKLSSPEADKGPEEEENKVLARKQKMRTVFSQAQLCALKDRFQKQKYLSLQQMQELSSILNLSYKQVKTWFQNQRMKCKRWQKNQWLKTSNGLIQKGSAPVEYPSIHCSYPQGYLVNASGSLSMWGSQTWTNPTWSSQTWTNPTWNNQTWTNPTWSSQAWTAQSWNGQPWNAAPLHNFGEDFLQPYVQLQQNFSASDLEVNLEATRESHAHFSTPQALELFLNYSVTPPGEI
# B1: Sin3a (protein, UniProt Q60520 1-1274)
# chain: MKRRLDDQESPVYAAQQRRIPGSTEAFSHQHRVLAPAPPVYEAVSETMQSATGIQYSVAPNYQVSAVPQSSGSHGPAIAAVHSSHHHPTAVQPHGGQVVQSHAHPAPPVAPVQGQQQFQRLKVEDALSYLDQVKLQFGSQPQVYNDFLDIMKEFKSQSIDTPGVISRVSQLFKGHPDLIMGFNTFLPPGYKIEVQTNDMVNVTTPGQVHQIPTHGIQPQPQPPPQHPSQPSSQSAPTPAQPAPQPTAAKVSKPSQLQAHTPASQQTPPLPPYASPRSPPVQPHTPVTISLGTAPSLQNNQPVEFNHAINYVNKIKNRFQGQPDIYKAFLEILHTYQKEQRNAKEAGGNYTPALTEQEVYAQVARLFKNQEDLLSEFGQFLPDANSSVLLSKTTAEKVDSVRNDHGGTVKKPQLNNKPQRPSQNGCQIRRHSGTGATPPVKKKPKLMSLKESSMADASKHGVGTESLFFDKVRKALRSAEAYENFLRCLVIFNQEVISRAELVQLVSPFLGKFPELFNWFKNFLGYKESVHLESFPKERATEGIAMEIDYASCKRLGSSYRALPKSYQQPKCTGRTPLCKEVLNDTWVSFPSWSEDSTFVSSKKTQYEEHIYRCEDERFELDVVLETNLATIRVLEAIQKKLSRLSAEEQAKFRLDNTLGGTSEVIHRKALQRIYADKAADIIDGLRKNPSIAVPIVLKRLKMKEEEWREAQRGFNKVWREQNEKYYLKSLDHQGINFKQNDTKVLRSKSLLNEIESIYDERQEQATEENAGVPVGPHLSLAYEDKQILEDAAALIIHHVKRQTGIQKEDKYKIKQIMHHFIPDLLFAQRGDLSDVEEEEEEEMDVDEATGAPKKHNGVGGSPPKSKLLFSNTAAQKLRGMDEVYNLFYVNNNWYIFMRLHQILCLRLLRICSQAERQIEEENREREWEREVLGIKRDKSDSPAIQLRLKEPMDVDVEDYYPAFLDMVRSLLDGNIDSSQYEDSLREMFTIHAYIAFTMDKLIQSIVRQLQHIVSDEVCVQVTDLYLAENNNGATGGQLNSQTSRSLLESAYQRKAEQLMSDENCFKLMFIQSQGQVQLTVELLDTEEENSDDPVEAERWSDYVERYMSSDTTSPELREHLAQKPVFLPRNLRRIRKCQRGREQQEKEGKEGNSKKTMENVESLDKLECRFKLNSYKMVYVIKSEDYMYRRTALLRAHQSHERVSKRLHQRFQAWVDKWTKEHVPREMAAETSKWLMGEGLEGLVPCTTTCDTETLHFVSINKYRVKYGTVFKAP
# How the values were obtained:
# [1] = target: T1, Flag-tagged WT Nanog (mouse); test: co-IP; Fig. 3g: Cops2 with Flag-tagged WT, Δα1, Δα2 and Δα3 Nanog; cells not told; Western blot
# Nanog (mouse) [2] = target: T2, Nanog (mouse); test: co-IP; Fig. 3f: HEK293T cells transfected with plasmids expressing Cops2 or Nanog, two days after transfection; lysis buffer 20 mM Tris-HCl pH 8.0, 137 mM NaCl, 10% glycerol, 1% NP-40, 2 mM EDTA; beads at 4 °C overnight; Western blot
# Nanog (mouse) [3] = target: T2, Nanog (mouse); test: co-IP; Supplementary Fig. S2c: association of Cops2 and of Cops5 with Nanog; cells, tags and antibody not shown
# Cops2 (mouse) = Cops2 (mouse) (UniProt P61202); test: co-IP; Supplementary Fig. S3: Cops2 with other repressive factors; cells, tags and antibodies not shown; the method is taken from the sentence before and from the methods section
Molecule,binding (Cops2 (mouse)),further results
Cops2 (from UniProt P61202 1-443),,binding [1]: binds; binding (Nanog (mouse) [2]): binds; binding (Nanog (mouse) [3]): binds
Hdac1 (from UniProt O09106 1-482),binds,
Hdac2 (from UniProt P70288 1-488),binds,
PCNA (from UniProt P17918 1-261),binds,
Rif1 (from UniProt Q6PR54 1-2419),binds,
B1,binds,
